Reference: PMC8032703
No constants are given. Whether binding was seen depends on the method and setting. For some of these results: Binding calls can cover weak binding; strength is not graded here. Sequences can lack the tags named with a protein.

Experiments:
[1] = molecular target: T1, FlgK (hook-associated protein, HAP1), pKT25-flgK two-hybrid fusion (Vibrio vulnificus); assay: two-hybrid; bacterial two-hybrid in E. coli BTH101: pUT18c with flaB or flaC, pKT25 with flgK, flgL or fliD; colour on X-gal plates (40 μg/ml X-gal, 0.5 mM IPTG) and β-galactosidase activity with ONPG in Miller units
T1 sequence: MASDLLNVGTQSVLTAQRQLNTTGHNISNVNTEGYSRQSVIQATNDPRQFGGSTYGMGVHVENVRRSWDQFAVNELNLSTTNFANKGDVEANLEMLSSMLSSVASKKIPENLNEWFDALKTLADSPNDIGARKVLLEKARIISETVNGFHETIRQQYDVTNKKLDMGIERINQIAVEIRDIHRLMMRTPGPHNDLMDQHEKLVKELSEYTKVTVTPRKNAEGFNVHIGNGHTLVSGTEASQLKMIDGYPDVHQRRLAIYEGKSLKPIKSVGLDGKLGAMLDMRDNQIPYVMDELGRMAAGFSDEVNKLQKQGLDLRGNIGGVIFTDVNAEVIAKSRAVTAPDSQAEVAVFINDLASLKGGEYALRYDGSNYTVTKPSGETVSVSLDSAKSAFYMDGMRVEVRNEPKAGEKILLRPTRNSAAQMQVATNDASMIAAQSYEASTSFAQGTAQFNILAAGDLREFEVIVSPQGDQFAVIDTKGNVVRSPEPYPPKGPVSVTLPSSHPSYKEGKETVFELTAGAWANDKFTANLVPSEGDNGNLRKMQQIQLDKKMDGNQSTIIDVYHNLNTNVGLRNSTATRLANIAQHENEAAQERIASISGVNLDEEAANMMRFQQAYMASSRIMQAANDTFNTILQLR

[2] = molecular target: T2, FlgL (hook-associated protein, HAP3), pKT25-flgL two-hybrid fusion (Vibrio vulnificus); assay: as above
T2 sequence: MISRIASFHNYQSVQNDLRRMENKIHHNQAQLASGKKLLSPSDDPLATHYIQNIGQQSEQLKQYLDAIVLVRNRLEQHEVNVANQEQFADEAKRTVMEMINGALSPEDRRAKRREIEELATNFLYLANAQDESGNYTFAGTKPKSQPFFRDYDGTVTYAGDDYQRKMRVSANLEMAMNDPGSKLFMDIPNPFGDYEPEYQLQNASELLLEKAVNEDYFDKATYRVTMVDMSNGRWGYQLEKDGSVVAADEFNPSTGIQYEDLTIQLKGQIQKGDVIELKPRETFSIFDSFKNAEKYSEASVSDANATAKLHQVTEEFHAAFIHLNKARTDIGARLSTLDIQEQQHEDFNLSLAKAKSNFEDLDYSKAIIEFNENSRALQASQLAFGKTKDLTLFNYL

Substance | binding [1] | binding [2]
FlaC (flagellin subunit), pUT18c-flaC two-hybrid fusion (Vibrio vulnificus MO6-24/O) | no binding | binds
FlaB (flagellin subunit), pUT18c-flaB two-hybrid fusion (Vibrio vulnificus MO6-24/O) | no binding | binds
